Source: the supplement of paper PMC12819154, “High-throughput peptide-centric local stability assay extends protein–ligand identification to membrane proteins, tissues and bacteria” (Nature Structural & Molecular Biology, 2025)
Some of the results follow. Most entries show no effect beyond the scatter of the controls.

Sequences of proteins named here, by UniProt entry; tags and fusion partners are left off. A change or cut given only in a name is not applied to a line headed by its entry.
UniProt Q8WUY9, whole entry: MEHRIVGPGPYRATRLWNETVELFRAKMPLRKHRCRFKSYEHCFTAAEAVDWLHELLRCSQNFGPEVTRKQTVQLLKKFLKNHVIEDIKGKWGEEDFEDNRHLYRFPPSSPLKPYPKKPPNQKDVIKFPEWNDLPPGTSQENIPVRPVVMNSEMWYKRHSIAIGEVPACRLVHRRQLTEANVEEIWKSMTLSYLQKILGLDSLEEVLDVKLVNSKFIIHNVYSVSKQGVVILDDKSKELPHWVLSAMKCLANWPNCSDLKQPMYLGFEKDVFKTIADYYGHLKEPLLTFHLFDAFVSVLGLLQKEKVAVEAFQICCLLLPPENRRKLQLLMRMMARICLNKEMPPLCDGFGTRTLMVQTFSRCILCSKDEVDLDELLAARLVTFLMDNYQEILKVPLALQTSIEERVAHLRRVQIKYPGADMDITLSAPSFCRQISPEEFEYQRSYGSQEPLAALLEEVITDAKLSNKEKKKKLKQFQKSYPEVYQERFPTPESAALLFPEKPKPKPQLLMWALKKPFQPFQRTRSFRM
UniProt Q8WUX1, whole entry: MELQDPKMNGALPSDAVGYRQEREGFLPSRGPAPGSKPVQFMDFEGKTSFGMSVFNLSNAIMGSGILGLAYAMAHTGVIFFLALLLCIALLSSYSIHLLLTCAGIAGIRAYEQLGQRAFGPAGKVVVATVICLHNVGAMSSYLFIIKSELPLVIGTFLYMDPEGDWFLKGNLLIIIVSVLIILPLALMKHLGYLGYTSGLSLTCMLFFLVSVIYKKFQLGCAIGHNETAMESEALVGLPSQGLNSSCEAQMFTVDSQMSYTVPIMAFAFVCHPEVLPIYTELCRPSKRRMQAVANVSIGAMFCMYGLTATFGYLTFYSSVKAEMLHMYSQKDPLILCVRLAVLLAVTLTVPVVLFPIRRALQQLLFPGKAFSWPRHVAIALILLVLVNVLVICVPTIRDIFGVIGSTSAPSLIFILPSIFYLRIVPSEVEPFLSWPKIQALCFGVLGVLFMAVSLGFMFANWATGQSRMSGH
UniProt Q8TDP1: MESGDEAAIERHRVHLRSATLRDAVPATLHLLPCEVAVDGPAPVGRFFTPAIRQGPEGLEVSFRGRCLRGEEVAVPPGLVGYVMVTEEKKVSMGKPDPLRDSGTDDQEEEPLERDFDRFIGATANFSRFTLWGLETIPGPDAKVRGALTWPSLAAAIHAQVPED
UniProt Q8WV99: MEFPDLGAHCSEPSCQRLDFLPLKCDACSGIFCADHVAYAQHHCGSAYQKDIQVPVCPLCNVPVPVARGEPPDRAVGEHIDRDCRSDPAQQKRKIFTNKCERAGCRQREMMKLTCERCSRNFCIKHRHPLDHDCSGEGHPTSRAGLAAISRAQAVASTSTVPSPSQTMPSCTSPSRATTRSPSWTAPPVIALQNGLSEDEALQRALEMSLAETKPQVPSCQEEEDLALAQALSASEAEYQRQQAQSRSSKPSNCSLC
UniProt Q92599: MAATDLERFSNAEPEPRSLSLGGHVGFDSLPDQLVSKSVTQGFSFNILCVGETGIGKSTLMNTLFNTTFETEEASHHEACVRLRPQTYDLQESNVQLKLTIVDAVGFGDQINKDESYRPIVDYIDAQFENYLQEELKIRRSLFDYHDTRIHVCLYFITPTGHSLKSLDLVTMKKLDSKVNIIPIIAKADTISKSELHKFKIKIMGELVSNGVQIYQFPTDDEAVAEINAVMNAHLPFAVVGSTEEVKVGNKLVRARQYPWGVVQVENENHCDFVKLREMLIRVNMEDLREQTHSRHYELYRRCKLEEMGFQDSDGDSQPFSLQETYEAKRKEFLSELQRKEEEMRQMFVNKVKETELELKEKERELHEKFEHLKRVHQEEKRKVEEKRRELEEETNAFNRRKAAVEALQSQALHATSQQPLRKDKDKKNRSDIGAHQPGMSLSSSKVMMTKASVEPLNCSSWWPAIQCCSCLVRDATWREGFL
UniProt Q8WUI4: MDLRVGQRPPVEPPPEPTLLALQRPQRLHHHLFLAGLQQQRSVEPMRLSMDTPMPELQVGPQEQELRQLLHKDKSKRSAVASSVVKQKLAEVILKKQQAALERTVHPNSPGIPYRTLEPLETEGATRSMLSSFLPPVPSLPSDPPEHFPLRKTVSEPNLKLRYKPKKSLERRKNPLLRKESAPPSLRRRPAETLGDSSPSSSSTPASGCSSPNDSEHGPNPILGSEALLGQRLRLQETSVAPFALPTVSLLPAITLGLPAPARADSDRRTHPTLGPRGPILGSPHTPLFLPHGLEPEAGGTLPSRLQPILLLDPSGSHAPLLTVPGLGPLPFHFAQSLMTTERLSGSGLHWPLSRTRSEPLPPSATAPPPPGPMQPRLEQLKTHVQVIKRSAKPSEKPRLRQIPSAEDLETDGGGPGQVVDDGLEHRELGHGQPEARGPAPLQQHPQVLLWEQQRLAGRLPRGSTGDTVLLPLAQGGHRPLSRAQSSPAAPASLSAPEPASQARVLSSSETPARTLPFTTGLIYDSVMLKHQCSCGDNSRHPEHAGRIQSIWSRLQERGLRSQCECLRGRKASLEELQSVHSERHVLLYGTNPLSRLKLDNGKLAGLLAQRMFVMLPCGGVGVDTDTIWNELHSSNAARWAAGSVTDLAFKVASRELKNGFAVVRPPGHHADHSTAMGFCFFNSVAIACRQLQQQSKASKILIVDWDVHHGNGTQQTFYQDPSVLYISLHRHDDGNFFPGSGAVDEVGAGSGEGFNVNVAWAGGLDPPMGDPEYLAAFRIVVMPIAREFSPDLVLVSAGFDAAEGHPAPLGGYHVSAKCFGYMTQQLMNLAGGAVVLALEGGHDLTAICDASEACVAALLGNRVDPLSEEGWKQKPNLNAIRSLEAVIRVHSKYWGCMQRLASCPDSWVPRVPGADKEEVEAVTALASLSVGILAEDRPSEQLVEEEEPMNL
UniProt Q8WVM8, whole entry, looked up: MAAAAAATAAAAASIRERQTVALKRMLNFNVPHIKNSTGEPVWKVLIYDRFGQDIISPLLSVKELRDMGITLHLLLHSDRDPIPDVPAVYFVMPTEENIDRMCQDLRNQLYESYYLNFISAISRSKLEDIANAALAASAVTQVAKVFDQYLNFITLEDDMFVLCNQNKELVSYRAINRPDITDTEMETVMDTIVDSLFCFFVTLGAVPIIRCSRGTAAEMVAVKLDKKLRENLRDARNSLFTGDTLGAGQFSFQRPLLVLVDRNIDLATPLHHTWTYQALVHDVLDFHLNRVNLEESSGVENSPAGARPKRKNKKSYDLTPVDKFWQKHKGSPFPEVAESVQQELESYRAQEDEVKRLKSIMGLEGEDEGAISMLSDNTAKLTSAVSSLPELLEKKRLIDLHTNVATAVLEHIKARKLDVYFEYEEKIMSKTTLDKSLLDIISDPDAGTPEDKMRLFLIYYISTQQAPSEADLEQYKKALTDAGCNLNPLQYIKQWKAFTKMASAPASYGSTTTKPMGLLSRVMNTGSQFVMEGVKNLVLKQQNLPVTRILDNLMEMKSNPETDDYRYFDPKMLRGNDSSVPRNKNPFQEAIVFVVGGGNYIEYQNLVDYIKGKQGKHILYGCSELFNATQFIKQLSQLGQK
UniProt Q92499: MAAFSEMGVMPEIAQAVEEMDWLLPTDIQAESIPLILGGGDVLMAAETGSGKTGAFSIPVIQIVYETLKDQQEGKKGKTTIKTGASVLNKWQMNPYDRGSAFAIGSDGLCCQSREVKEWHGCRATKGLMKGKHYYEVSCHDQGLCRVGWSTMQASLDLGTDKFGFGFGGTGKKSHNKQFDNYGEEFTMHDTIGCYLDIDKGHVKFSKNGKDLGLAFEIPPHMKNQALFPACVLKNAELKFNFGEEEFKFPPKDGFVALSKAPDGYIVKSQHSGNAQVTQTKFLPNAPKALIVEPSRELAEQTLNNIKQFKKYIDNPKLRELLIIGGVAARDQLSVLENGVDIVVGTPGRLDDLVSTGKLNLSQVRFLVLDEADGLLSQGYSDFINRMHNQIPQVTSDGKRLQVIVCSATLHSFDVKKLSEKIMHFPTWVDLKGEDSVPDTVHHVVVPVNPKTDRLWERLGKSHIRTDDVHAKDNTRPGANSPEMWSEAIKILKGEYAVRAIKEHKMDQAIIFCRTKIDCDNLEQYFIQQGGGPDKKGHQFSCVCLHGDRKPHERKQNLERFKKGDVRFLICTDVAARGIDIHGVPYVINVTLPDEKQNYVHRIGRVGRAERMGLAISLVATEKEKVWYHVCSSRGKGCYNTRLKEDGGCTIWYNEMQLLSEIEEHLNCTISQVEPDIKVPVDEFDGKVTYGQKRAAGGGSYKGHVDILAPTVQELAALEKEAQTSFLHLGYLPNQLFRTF
UniProt Q92538, whole entry: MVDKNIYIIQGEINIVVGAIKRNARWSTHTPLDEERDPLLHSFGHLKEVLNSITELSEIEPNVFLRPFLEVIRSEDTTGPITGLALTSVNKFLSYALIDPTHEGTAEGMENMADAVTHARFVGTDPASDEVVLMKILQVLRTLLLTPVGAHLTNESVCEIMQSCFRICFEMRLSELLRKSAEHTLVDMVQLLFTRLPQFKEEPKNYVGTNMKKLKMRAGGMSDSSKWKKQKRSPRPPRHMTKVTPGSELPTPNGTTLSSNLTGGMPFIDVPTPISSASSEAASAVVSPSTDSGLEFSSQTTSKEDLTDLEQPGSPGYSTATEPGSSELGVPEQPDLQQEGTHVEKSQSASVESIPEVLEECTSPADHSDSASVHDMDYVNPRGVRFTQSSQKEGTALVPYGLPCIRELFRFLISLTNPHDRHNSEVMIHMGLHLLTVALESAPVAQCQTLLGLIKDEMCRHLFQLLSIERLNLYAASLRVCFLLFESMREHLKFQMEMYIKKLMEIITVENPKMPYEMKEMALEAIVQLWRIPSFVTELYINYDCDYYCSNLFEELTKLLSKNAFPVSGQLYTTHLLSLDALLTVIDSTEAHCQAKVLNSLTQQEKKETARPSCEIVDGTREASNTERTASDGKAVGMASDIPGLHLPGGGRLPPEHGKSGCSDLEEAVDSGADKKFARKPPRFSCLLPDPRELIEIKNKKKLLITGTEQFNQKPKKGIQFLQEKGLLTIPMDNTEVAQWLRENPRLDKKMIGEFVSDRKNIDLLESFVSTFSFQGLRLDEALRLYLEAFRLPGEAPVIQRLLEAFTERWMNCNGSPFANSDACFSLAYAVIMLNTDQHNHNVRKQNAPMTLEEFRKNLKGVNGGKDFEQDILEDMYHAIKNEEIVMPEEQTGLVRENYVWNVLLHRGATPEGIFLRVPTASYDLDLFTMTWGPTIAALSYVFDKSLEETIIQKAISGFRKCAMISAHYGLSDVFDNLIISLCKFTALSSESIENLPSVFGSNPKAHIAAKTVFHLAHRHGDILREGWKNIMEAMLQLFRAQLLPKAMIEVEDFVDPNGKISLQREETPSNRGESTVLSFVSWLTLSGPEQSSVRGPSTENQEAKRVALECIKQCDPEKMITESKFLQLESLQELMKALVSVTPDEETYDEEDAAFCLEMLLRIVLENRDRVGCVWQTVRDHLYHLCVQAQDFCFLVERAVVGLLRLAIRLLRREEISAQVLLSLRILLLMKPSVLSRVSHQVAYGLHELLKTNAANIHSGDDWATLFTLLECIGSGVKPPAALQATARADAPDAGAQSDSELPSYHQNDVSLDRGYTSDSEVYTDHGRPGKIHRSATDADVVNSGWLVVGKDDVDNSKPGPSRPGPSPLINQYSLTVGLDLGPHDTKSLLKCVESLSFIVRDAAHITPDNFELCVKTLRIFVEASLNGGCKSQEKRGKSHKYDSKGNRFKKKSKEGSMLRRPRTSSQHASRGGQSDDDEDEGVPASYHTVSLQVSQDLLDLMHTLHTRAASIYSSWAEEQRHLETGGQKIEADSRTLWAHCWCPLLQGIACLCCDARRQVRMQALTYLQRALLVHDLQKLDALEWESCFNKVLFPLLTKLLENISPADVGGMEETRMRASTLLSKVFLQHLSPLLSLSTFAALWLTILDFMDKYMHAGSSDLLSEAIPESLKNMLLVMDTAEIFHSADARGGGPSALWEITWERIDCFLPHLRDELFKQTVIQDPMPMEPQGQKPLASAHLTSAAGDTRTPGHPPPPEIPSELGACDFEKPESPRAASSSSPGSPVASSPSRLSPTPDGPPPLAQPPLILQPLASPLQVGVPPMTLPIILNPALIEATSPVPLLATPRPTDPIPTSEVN
UniProt Q8TCB7: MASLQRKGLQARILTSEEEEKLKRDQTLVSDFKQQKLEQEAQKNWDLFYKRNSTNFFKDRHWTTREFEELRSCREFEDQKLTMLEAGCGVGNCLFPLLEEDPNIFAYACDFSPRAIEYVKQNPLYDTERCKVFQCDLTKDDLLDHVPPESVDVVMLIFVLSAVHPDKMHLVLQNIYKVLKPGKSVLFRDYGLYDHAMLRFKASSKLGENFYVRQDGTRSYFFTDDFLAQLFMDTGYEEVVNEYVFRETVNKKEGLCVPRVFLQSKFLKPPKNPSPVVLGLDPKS

What follows are targets tested with CN[C@@H]1C[C@H]2O[C@@](C)([C@@H]1OC)n1c3ccccc3c3c4c(c5c6ccccc6n2c5c31)C(=O)NC4 [staurosporine] (assay: log2 fold change of tryptic peptide abundance, ligand vs vehicle (limited proteolysis) (log2 ratio); higher = more trypsin-susceptible (destabilized)). Settings: ligand concentration: 20 uM; sample: K562 cleared lysate; digestion: 4 min, 22 C (HT-PELSA RT4min, Orbitrap Astral).

Target	log2 fold change
CHD5 (peptide sequence: ESLAGNKPANAVLHK, peptide start residue: 1849) (UniProt Q8TDI0)	0.152
MYST3 (peptide sequence: LANPLYTEWILEAIKK, peptide start residue: 4) (UniProt Q92794)	0.469
TRAF3IP1 (peptide sequence: NTEDRGDAEIKER, peptide start residue: 164) (UniProt Q8TDR0)	-0.811
ARHGEF40 (peptide sequence: EAVLAALALR, peptide start residue: 900) (UniProt Q8TER5)	0.435
DEPDC1B (peptide sequence: SYEHCFTAAEAVDWLHELLR, peptide start residue: 39) (UniProt Q8WUY9)	0.342
SLC38A5 (peptide sequence: MNGALPSDAVGYRQER, peptide start residue: 8) (UniProt Q8WUX1)	0.0913
ELMO1 (peptide sequence: IQPEILELIK, peptide start residue: 540) (UniProt Q92556)	0.472
TOPBP1 (peptide sequence: ELGTGLSQK, peptide start residue: 1498) (UniProt Q92547)	-0.245
PREX1 (peptide sequence: VAEEDQEDSGHDTMSYR, peptide start residue: 1151) (UniProt Q8TCU6)	-0.177
RNF141 (peptide sequence: HLLFEVQPGSDSSAFWK, peptide start residue: 59) (UniProt Q8WVD5)	-0.37
RNASEH2C (peptide sequence: FTLWGLETIPGPDAK, peptide start residue: 129) (UniProt Q8TDP1)	0.204
ZFPM2 (peptide sequence: LLDYHECTVCK, peptide start residue: 850) (UniProt Q8WW38)	-0.863
PPM1E (peptide sequence: RRPQLYYETSIHAIK, peptide start residue: 224) (UniProt Q8WY54)	0.634
FNIP1 (peptide sequence: TSTDSKDHCCMLEFSK, peptide start residue: 856) (UniProt Q8TF40)	0.415
BCL7C (peptide sequence: DPGGITAGSTDEPPMLTK, peptide start residue: 148) (UniProt Q8WUZ0)	0.195
AKAP1 (peptide sequence: FIESAHTELAK, peptide start residue: 271) (UniProt Q92667)	-0.782
ZFAND2B (peptide sequence: HRHPLDHDCSGEGHPTSR, peptide start residue: 126) (UniProt Q8WV99)	0.53
IPCEF1 (peptide sequence: KTQGFLTMSRR, peptide start residue: 484) (UniProt Q8WWN9)	-0.236
RAD54L (peptide sequence: SLAPSQLAK, peptide start residue: 4) (UniProt Q92698)	0.19

Looked up above.
RNASEH2C (peptide sequence: FTLWGLETIPGPDAK, peptide start residue: 129) (UniProt Q8TDP1) – log2 fold change: 0.204
RAD54L (peptide sequence: SLAPSQLAK, peptide start residue: 4) (UniProt Q92698) – log2 fold change: 0.19

Remaining list, next part

Target	log2 fold change
UniProt Q92599 (peptide sequence: ELEEETNAFNR, peptide start residue: 390)	-0.542
STAM (peptide sequence: VMEALSLYTK, peptide start residue: 364) (UniProt Q92783)	-0.0821
MRPL30 (peptide sequence: VFQASPEDHEK, peptide start residue: 45) (UniProt Q8TCC3)	0.512
CORO2A (peptide sequence: RGLDVSSCEIFR, peptide start residue: 328) (UniProt Q92828)	0.254
HDAC7 (peptide sequence: TVHPNSPGIPYR, peptide start residue: 104) (UniProt Q8WUI4)	0.0892
THAP3 (peptide sequence: RPQATEAVGRPTGPAGLR, peptide start residue: 151) (UniProt Q8WTV1)	0.241
SCFD1 (peptide sequence: RLIDLHTNVATAVLEHIK, peptide start residue: 397) (UniProt Q8WVM8)	0.542
LRRC20 (peptide sequence: FDMLMSPEGAR, peptide start residue: 170) (UniProt Q8TCA0)	0.412
UniProt Q8TDN6 (peptide sequence: MLMPHSK, peptide start residue: 83)	-0.54
DDX1 (peptide sequence: DNTRPGANSPEMWSEAIK, peptide start residue: 473) (UniProt Q92499)	-0.531
WASF1 (peptide sequence: RHPSTLPVISDAR, peptide start residue: 486) (UniProt Q92558)	-0.0958
ATRIP (peptide sequence: VMEEEVLIK, peptide start residue: 130) (UniProt Q8WXE1)	0.196
UniProt Q8TDB8 (peptide sequence: TFEDITR, peptide start residue: 457)	0.0163
GBF1 (peptide sequence: LLEAFTER, peptide start residue: 801) (UniProt Q92538)	-0.374
METTL6 (peptide sequence: ILTSEEEEK, peptide start residue: 13) (UniProt Q8TCB7)	-0.131
PYROXD1 (peptide sequence: IHLETMCEVKKIYLQDEFR, peptide start residue: 255) (UniProt Q8WU10)	0.496
SLC9A6 (peptide sequence: ELAFGDHELVIR, peptide start residue: 632) (UniProt Q92581)	-0.182
PHF10 (peptide sequence: VPEYIKK, peptide start residue: 196) (UniProt Q8WUB8)	0.26
